According to patent KR20230083068A:
These are yes or no findings as the source states them, for the method shown. Some results given as binding are weak or reduced against the parent protein; the word gives no strength.

Chains of the proteins cited; added tags and fusions are not shown.
UniProt P33469: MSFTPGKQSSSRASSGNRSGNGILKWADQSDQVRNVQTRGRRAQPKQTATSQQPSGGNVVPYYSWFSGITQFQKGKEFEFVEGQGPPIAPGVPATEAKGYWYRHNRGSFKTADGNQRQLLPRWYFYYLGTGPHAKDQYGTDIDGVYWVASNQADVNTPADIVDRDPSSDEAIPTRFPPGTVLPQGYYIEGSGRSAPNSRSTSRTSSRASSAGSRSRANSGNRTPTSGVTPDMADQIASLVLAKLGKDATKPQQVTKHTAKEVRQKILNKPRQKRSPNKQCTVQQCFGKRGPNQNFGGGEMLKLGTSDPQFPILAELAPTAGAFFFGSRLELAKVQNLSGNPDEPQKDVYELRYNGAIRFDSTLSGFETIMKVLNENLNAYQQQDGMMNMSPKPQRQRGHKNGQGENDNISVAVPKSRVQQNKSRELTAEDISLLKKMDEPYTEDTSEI

What was measured:
[1] = molecular target: HCoV-OC43 N 단백질 (바이러스 입자 또는 감염된 Vero 세포 용해물의 천연 N 단백질) (HCoV-OC43) (UniProt P33469); assay: sandwich ELISA, mAb coated on plate, lysed virus particles
[2] = molecular target: HCoV-OC43 N 단백질 (바이러스 입자 또는 감염된 Vero 세포 용해물의 천연 N 단백질) (HCoV-OC43) (UniProt P33469); assay: western blot of infected Vero cell lysates
[3] = molecular target: HCoV-OC43 N 단백질 (바이러스 입자 또는 감염된 Vero 세포 용해물의 천연 N 단백질) (HCoV-OC43) (UniProt P33469); assay: western blot of pulled-down complexes and of virus lysate

Measured: binding

B1: 항-HCoV-OC43 N 단백질 특이적 단클론 항체 (클론 1C7D7 mAb) (antibody, V domains shown)
VH: EVKLEQSGGGLVKPGGSLKLSCAASGFSFSSHTMSWVRQTPEKRLEWVATITSGGTYTYYPDSVKGRFTISRDNAKNTLYLQMTSLKSEDTAMYYCTRGQEADGYYVPFAYWGQGTLVTVSA
VL: DIVMTQSPSSLAVSVGEKVTMSCKSSQSLLYSSNQKNYLAWYQQKPGQSPKLLIFWASTRESGVPDRFTGSGSGTDFTLTISSVQAEDLAVYYCKQSYNLRTFGGGTKLEIKR
binds: [1] | [2] | [3]
